Laboratory results published in publication doi:10.1101/2025.09.29.679228.
These are yes or no findings as the source states them, for the method shown. Some results given as binding are weak or reduced against the parent protein; the word gives no strength. Each block holds one molecule with its values, some of them ahead of it.

Protein sequences, listed by entry. Tags and fused reporters are not part of them. Lines headed by an entry give the natural chain unless they say otherwise; changes in a name come on top. Chains listed by the source or under a name are the forms on record and can include a tag or linker. Residues count along the entry.
EphA2 SAM domain (isolated) (P29317, residues 908-972): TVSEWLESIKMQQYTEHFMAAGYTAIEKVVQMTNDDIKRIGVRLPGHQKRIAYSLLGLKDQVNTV
EphA2 intracellular region (ICR), kinase-dead (D739N) (P29317, form named): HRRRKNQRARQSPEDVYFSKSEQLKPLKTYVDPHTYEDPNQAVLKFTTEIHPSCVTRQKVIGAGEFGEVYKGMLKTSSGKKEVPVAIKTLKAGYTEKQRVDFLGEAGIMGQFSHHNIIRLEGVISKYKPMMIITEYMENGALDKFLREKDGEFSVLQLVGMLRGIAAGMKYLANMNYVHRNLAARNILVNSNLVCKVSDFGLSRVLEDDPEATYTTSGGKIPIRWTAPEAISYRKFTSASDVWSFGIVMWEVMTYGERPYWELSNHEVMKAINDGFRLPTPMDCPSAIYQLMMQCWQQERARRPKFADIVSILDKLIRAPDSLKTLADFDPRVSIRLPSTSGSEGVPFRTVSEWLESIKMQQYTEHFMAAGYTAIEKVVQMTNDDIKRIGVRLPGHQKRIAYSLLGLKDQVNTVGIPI

How the values were obtained:
[1] = biological target: EphA2 intracellular region (ICR), kinase-dead (D739N) (human) (UniProt P29317); assay: MST
[2] = biological target: EphA2 intracellular region (ICR), kinase-dead (D739N) (human) (UniProt P29317); assay: NMR titration
[3] = biological target: EphA2 intracellular region (ICR), kinase-dead (D739N) (human) (UniProt P29317); assay: MST; remark: listed apart in the source

binding [1]: binds | binding [2]: binds
Molecule: EphA2 SAM domain (isolated) (from UniProt P29317 908-972) (domain or fragment)

binding [3]: binds
B1: SHIP2 SAM domain (isolated) (domain or fragment, UniProt O15357 1200-1258)
chain: GMSAWLRAIGLERYEEGLVHNGWDDLEFLSDITEEDLEEAGVQDPAHKRLLLDTLQLSK
